PubChem BioAssay AID504791 – Drosophila RNAi Screening Center, 2011

Test: 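Genes of the fly required for silencing by miRNA, siRNA or endo-siRNA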 (primary screen)
System: Drosophila S2-derived reporter cells
Reagent: long dsRNA against Drosophila genes, about 150-250 ng dsRNA per well (siRNA assay); about 80-120 ng (miRNA assay)
Duration: about 5 days (siRNA assay); about 4 days (miRNA assay)
Conditions: copper sulfate induction of reporters: 25 µM (siRNA assay); 200 mM stated (miRNA assay), 1-2 days before reading
Measurement: 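Per-well ratio of Renilla over firefly light, expressed relative to that plate's average ratio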
Scale: siRNA reporter hit score: higher = 3 marks a strong hit with raised ratio; -3 a strong hit with lowered ratio
Hit rule: 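First-pass picks had plate-scaled ratios over 1.5 for the siRNA assay, over 1.6 for the miRNA assay, or under 0.6; two distinct dsRNAs had to score alike on retest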
The deposit covers about 23,000 reagents; below is a random part of those with a known target gene and a result. Of all reagents, 199 (0.86%) are marked active. 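Plate-scaled ratios behind the calls are not deposited; printed light signals are raw; many rows marked increased or decreased are still called inactive.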 Entries without a mark were called inactive. A plus sign joins genes that one reagent is predicted to hit. Not all columns of the deposit are shown. Reagent sequences are not shown.

target | DRSC id | siRNA reporter hit score | miRNA reporter change | stable assay Renilla, run 1 (luminescence)
CG9044 | DRSC03130 | – | – | 54747
Su(H) (Suppressor of Hairless) | DRSC03445 | – | – | 7716
NiPp1 (Nuclear inhibitor of Protein phosphatase 1) | DRSC07307 | – | – | 13229
CG42821 + CG42822 | DRSC13231 | – | – | 3956
CG42821 + CG42822 | DRSC13232 | – | – | 4699
Kul (Kuzbanian-like) | DRSC15404 | – | – | 6751
B52 | DRSC14121 | – | – | 4915
CG14270 | DRSC17913 | – | – | 6183
Pgant3 (Polypeptide N-Acetylgalactosaminyltransferase 3) | DRSC05942 | – | – | 32907
Ttc1 (Tetratricopeptide repeat domain 1) | DRSC15016 | – | – | 6062
Ttc1 (Tetratricopeptide repeat domain 1) | DRSC22469 | – | – | 3776
CG32371 | DRSC22209 | – | – | 8958
CG33331 + CG33332 | DRSC22928 | – | – | 4344
CG33331 + CG33332 | DRSC29492 | – | reporter ratio lowered past the hit cutoff | –
Targ1 (Terminal ADP-ribose protein glycohydrolase 1) | DRSC11616 | – | – | 7183
CG34277 + CG31542 | DRSC21544 | – | – | 9237
glob3 (globin 3) | DRSC12261 | – | reporter ratio raised past the hit cutoff | 7943
Twdlalpha (Tweedlealpha) | DRSC19914 | – | – | 6003
CG18266 | DRSC02659 | – | – | 12014
Hacl (2-hydroxyacyl-CoA lyase) | DRSC06061 | – | – | 10861
Pcl (Polycomblike) | DRSC07503 | – | – | 8388
Regnase-1 (Regnase 1) | DRSC14278 | – | – | 8464
CG10126 | DRSC14191 | – | – | 8354
TfIIEalpha (Transcription factor IIEalpha) | DRSC11303 | -3 | – | 6762
CG31088 | DRSC13123 | – | – | 4323
Prosalpha4T2 (Proteasome alpha4 subunit, Testis-specific 2) | DRSC04643 | – | – | 5715
puc (puckered) | DRSC17034 | – | – | 6127
lectin-21Cb | DRSC00355 | – | – | 7852
CG42597 | DRSC03681 | – | – | 4111
CG7448 (retired record) | DRSC11828 | – | – | 8168
CG7448 (retired record) | DRSC22485 | – | – | 6415
Gr63a (Gustatory receptor 63a) | DRSC08438 | – | – | 7259
qkr54B (quaking related 54B) | DRSC07670 | – | – | 6647
CG12567 | DRSC20845 | – | – | 5387
CG5098 | DRSC06915 | – | – | 7686
CG13049 | DRSC09930 | – | – | 6667
kek4 (kekkon 4) | DRSC03220 | – | – | 12706
ncd (non-claret disjunctional) | DRSC17012 | – | – | 7460
GstE11 (Glutathione S transferase E11) | DRSC06926 | – | – | 8831
CG14835 | DRSC10205 | – | – | 6586
CG43347 | DRSC17982 | – | – | 5236
CG43347 | DRSC18446 | – | – | 3924
CG43347 | DRSC22656 | – | – | 3011
CG43347 | DRSC22682 | – | – | 4659
CG43347 | DRSC23007 | – | – | 3767
CG43347 | DRSC23170 | – | – | 7022
Nepl16 (Neprilysin-like 16) | DRSC14650 | – | – | 6660
Usp12-46 (Ubiquitin-specific protease 12/46) | DRSC16175 | – | – | 7162
CG42502 + CG10570 | DRSC02071 | – | – | 2.71e5
Vha68-2 (Vacuolar H[+] ATPase 68 kDa subunit 2) | DRSC02721 | – | – | 7432
CG8066 | DRSC16374 | – | – | 7200
bt (bent) | DRSC17129 | – | – | 6358
bt (bent) | DRSC17171 | – | – | 5862
pnr (pannier) | DRSC17027 | – | – | 8011
uif (uninflatable) | DRSC00963 | – | – | 5859
uif (uninflatable) | DRSC03427 | – | – | 6655
CG15253 | DRSC01871 | – | – | 6787
